In PubChem BioAssay AID248 (DTP/NCI, 2004):
The list shows only some results of the screen, not a fair sample: it gathers tests that were run many times, whatever their T/C, doses with no T/C, and many T/C values between a quarter and a half above the control. Further doses and runs are listed elsewhere. T/C: endpoint of the treated group in % of that of the vehicle group. Some doses have a count of surviving animals in place of a T/C: the source holds a T/C of zero for them, seemingly a mark for toxic or unscored doses. Some doses without a T/C left all or most animals alive at the check, yet need not have been tolerated: survival well below the control is almost never listed, so the zero probably covers shortened survival too. Counts of survivors are from the toxicity check (mostly the fifth day) where no day follows; animals may have died later. Schedule codes are those of the source, read here as Q, the interval in days (D) or hours (H), X, the number of doses. Some entries hold several experiments; the results are listed from low to high. Some schedules carry Z or #; the key to these is not given. For survival time, this PubChem deposit counts one and a half times the control or more as active, and values a quarter to a half above the control carry no call in these data; other NCI protocols may use other cut-offs.

Tested on: L1210 leukemia ip in BDF1 mice, survival T/C
Assay: NCI In Vivo Anticancer Drug Screen. Data for tumor model L1210 Leukemia (intraperitoneal) in B6D2F1 (BDF1) mice
Details: T/C endpoint: mean survival time, higher T/C = longer survival
[1] = dose: 400.0 mg/kg/injection, schedule: Q04DX003 (ip), vehicle: saline
[2] = dose: 400.0 mg/kg/injection, schedule: Q01DX001 (ip), vehicle: saline
[3] = dose: 400.0 mg/kg/injection, schedule: Q04DX003 (ip), vehicle: Klucel (hydroxypropylcellulose) (HPC)
[4] = dose: 200.0 mg/kg/injection, schedule: Q01DX001 (ip), vehicle: saline

CC[C@]12CN3CCc4c([nH]c5ccccc45)[C@@](C(=O)OC)(c4cc5c(cc4OC)N(C)[C@H]4[C@@](O)(C(=O)OC)[C@H](OC(C)=O)[C@]6(CC)C=CCN7CC[C@]54[C@@H]76)CC(C3)[C@H]1O2 (some centres undefined)
survivor count (dose: 12.0 mg/kg/injection, schedule: Q01DX002 (ip), vehicle: saline): 4 of 6
T/C (dose: 12.0 mg/kg/injection, schedule: Q01DX009 (ip), vehicle: saline): 133 % of control
T/C (dose: 16.5 mg/kg/injection, schedule: Q04DX003 (ip), vehicle: saline): 127 % of control
T/C (dose: 25.0 mg/kg/injection, schedule: Q04DX003 (ip), vehicle: saline with Tween-80): 131 % of control
T/C (dose: 25.0 mg/kg/injection, schedule: Q04DX003 (ip), vehicle: saline): 145 % of control
T/C (dose: 37.5 mg/kg/injection, schedule: Q04DX003 (ip), vehicle: saline with Tween-80): 148 % of control

Cc1ncc(C)c(=O)[nH]1
survivor count [1]: 0 of 6

CCCCCCCCOB(OCCCCCCCC)OCCCCCCCC
survivor count (dose: 400.0 mg/kg/injection, schedule: Q01DX009 (ip), vehicle: saline with Tween-80): 0 of 6
survivor count (dose: 400.0 mg/kg/injection, schedule: Q04DX003 (ip), vehicle: saline with Tween-80): 0 of 6

Cc1cccc2cc3cccc(C)[n+]3cc12
survivor count (dose: 40.0 mg/kg/injection, schedule: Q01DX001 (ip), vehicle: other): 1 of 6
survivor count (dose: 80.0 mg/kg/injection, schedule: Q01DX001 (ip), vehicle: other): 0 of 6
survivor count (dose: 100.0 mg/kg/injection, schedule: Q01DX001 (ip), vehicle: other): 0 of 6
survivor count (dose: 200.0 mg/kg/injection, schedule: Q01DX001 (ip), vehicle: other): 0 of 6
survivor count (dose: 400.0 mg/kg/injection, schedule: Q01DX001 (ip), vehicle: other): 0 of 6

O=C(O)c1ccc(/C=N/NC(=O)c2cccc3ccccc23)cc1
survivor count [2]: 3 of 4

Nc1ccccc1SC1CC(=O)N(c2ccc(Br)cc2Cl)C1=O (centres undefined)
survivor count (dose: 100.0 mg/kg/injection, schedule: Q01DX009 (ip), vehicle: Klucel (hydroxypropylcellulose) (HPC)): 3 of 6

CCCC1=C(CCC)C1C(=O)O
survivor count [3]: 3 of 6

N=C1SCc2ccccc21
survivor count (dose: 200.0 mg/kg/injection, schedule: Q01DX009 (ip), vehicle: Klucel (hydroxypropylcellulose) (HPC)): 3 of 6
survivor count (dose: 400.0 mg/kg/injection, schedule: Q01DX009 (ip), vehicle: Klucel (hydroxypropylcellulose) (HPC)): 0 of 6

CN(N=O)C(=O)NCc1c[nH]c(=O)[nH]c1=O
T/C (dose: 75.0 mg/kg/injection, schedule: Q01DX Z (ip), vehicle: carboxymethylcellulose (CMC)): 133 % of control
survivor count (dose: 100.0 mg/kg/injection, schedule: Q01DX Z (ip), vehicle: carboxymethylcellulose (CMC)): 2 of 6
survivor count (dose: 150.0 mg/kg/injection, schedule: Q01DX Z (ip), vehicle: carboxymethylcellulose (CMC)): 1 of 6

C=CCNC(=S)NN
survivor count (dose: 25.0 mg/kg/injection, schedule: Q04DX003 (ip), vehicle: Klucel (hydroxypropylcellulose) (HPC)): 0 of 6 and 2 of 6
survivor count (dose: 50.0 mg/kg/injection, schedule: Q04DX003 (ip), vehicle: Klucel (hydroxypropylcellulose) (HPC)): 0 of 6
survivor count (dose: 100.0 mg/kg/injection, schedule: Q04DX003 (ip), vehicle: Klucel (hydroxypropylcellulose) (HPC)): 0 of 6
survivor count (dose: 200.0 mg/kg/injection, schedule: Q04DX003 (ip), vehicle: Klucel (hydroxypropylcellulose) (HPC)): 0 of 6
survivor count [3]: 0 of 6

COC(=O)/C=C\C[P+](c1ccccc1)(c1ccccc1)c1ccccc1
survivor count [4]: 0 of 6
survivor count [2]: 0 of 6

C1CC2CCC[N+]3=C2C(C1)CCC3 (centres undefined)
survivor count (dose: 100.0 mg/kg/injection, schedule: Q04DX003 (ip), vehicle: saline): 0 of 6
survivor count (dose: 200.0 mg/kg/injection, schedule: Q04DX003 (ip), vehicle: saline): 0 of 6
survivor count [1]: 0 of 6

CCCCc1ccccn1
survivor count [4]: 0 of 4
survivor count [2]: 0 of 4
